Source: patent US20230227565A1, “Method for Treating CD127-Positive Cancers by Administering an Anti-CD127 Agent” (OSE IMMUNOTHERAPEUTICS, priority 2021, published 2023)
At least one structure is not confirmed: it was looked up by name or label, or the drawing left a doubt.

Test system: HPB-ALL cell line
Assay: Dexamethasone treatment of HPB-ALL cells (48 h)
Type: cell-based, human

C[C@@H]1C[C@H]2[C@@H]3CCC4=CC(=O)C=C[C@]4(C)[C@@]3(F)[C@@H](O)C[C@]2(C)[C@@]1(O)C(=O)CO [dexamethasone]
response of leukemic cells to Dexamethasone (FIG. 13A, 48 h treatment): resistant
CD127 expression (FIG. 13B, increasing concentrations, 48 h): increased
